In paper doi:10.1101/2021.05.11.443658 (bioRxiv, 2021) one finds binding data, which are given here for 5 molecules.

By UniProt entry, the sequences of proteins in these tests, tags left out.
UniProt Q10PZ9: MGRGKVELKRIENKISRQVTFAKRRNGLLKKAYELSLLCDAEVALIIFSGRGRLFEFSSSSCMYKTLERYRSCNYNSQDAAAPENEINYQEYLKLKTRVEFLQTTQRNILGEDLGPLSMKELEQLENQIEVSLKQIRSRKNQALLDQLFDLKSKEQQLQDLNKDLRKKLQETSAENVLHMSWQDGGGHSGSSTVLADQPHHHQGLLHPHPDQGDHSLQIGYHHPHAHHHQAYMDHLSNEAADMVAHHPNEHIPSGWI

These are yes or no findings as the source states them, for the method shown. For some assays here: In cells and extracts the contact can be indirect. Some binding calls cover weakened binding; strength is not graded here. Sequences can lack the tags named with a protein.

Assay [1] concerns the target OsbZIP47ΔC-cYFP fusion protein (BiFC) (rice (Oryza sativa)) (UniProt Q5Z6N9). Description: split reporter.
Assay [2] deals with T1, OsbZIP47ΔC fused to the Gal4 DNA-binding domain (yeast two-hybrid bait) (rice (Oryza sativa)) (UniProt Q5Z6N9).
T1 sequence: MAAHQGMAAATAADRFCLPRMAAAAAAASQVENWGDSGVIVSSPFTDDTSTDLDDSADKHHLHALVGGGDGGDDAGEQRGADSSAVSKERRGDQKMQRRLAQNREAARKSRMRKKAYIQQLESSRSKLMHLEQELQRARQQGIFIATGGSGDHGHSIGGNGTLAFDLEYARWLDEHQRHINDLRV
Briefly: two-hybrid.

As to “OsMADS1 nYFP fusion protein (BiFC) (from UniProt Q10PZ9 1-257)”, in assay [1], the binding result is on record as “binds”. For “OSH1 nYFP fusion protein (BiFC) (from UniProt P46609 1-361)”, the binding entry in assay [1] is reported as “binds”.

B1: RFL fused to the GAL4 activation domain (yeast two-hybrid prey) (protein, UniProt Q0JAI1 1-389)
chain: MDPNDAFSAAHPFRWDLGPPAPAPVPPPPPPPPPPPPANVPRELEELVAGYGVRMSTVARISELGFTASTLLAMTERELDDMMAALAGLFRWDLLLGERFGLRAALRAERGRLMSLGGRHHGHQSGSTVDGASQEVLSDEHDMAGSGGMGDDDNGRRMVTGKKQAKKGSAARKGKKARRKKVDDLRLDMQEDEMDCCDEDGGGGSESTESSAGGGGGERQREHPFVVTEPGEVARAKKNGLDYLFHLYEQCRLFLLQVQSMAKLHGHKSPTKVTNQVFRYAKKVGASYINKPKMRHYVHCYALHCLDEEASDALRRAYKARGENVGAWRQACYAPLVDISARHGFDIDAVFAAHPRLAIWYVPTRLRQLCHQARSSHAAAAAALPPPLF
Consider B1, for which the binding entry in assay [2] was “binds”.

B2: RFL nYFP fusion protein (BiFC) (protein, UniProt Q0JAI1 1-389)
chain: B1 chain
Turning to B2, the binding entry in assay [1] is given as “binds”.

B3: OSH1 fused to the GAL4 activation domain (yeast two-hybrid prey) (protein, UniProt P46609 1-361)
chain: MEEISHHFGVVGASGVHGGHQHQHHHHPWGSSLSAIVAPPPPPQLQQQQTQAGGMAHTPLTLNTAAAAVGNPVLQLANGSLLDACGKAKEASASASYAADVEAIKAKIISHPHYSSLLAAYLDCQKVGAPPEVAARLTAVAQDLELRQRTALGVLGAATEPELDQFMEAYHEMLVKYREELTRPLQEAMEFLRRVETQLNTLSISGRSLRNILSSGSSEEDQEGSGGETELPEIDAHGVDQELKHHLLKKYSGYLSSLKQELSKKKKKGKLPKDARQQLLNWWELHYKWPYPSESQKVALAESTGLDLKQINNWFINQRKRHWKPSDEMQFVMMDGYHPTNAAAFYMDGHFINDGGLYRLG
Consider B3, for which, in assay [2], the binding result is recorded as “binds”.
